Patent US20180037601A1, “Nucleoside-Based Anti-Bacterial and Anti-Protozoan Drugs” (UTI Limited Partnership, priority 2015, published 2018)

Test system: Plasmodium falciparum (KI), erythrocytic stages
Assay: In vitro growth inhibition assay of P. falciparum, [3H]-hypoxanthine incorporation
Type: cell-based
Settings: read-out: IC50 against Plasmodium falciparum
From the text: Each of the nucleoside analogues was examined for in vitro activity against four parasites, T.b. rhodesiene, T. cruzi, L. donovoni and P. falciparum, as well as for cytotoxicity toward the L6 rat myoblast cell line.
All IC50 values are expressed as micromolar. Cytotoxicity (L6 rat myoblast cells); average of duplicate determinations. Trypanosoma brucei rhodesiense (STIB900); average of duplicate determinations. Selectivity index for T.b. rhodesiense (SIr); expressed as the ratio [IC50 (L6/IC50 (T.b. rhodesiense)]. Plasmodium falciparum ([…], resistant to chloroquine); average of duplicate determinations. Selectivity index for P. falciparum (SIp), expressed as the ratio [IC50 (L6/IC50 (P. falciparum)]. Leishmania donovani (MHOM/SD/62/IS-CL2D) axenic amastigotes; average of duplicate determinations. Selectivity index for L. donovani (SIL), expressed as the ratio [IC50 (L6/IC50 (L. donovani)]. Trypanosoma cruzi; average of duplicate determinations. Selectivity index for T. cruzi (SIC), expressed as the ratio [IC50(L6/IC50(T. cruzi)]. IA. Nucleoside analogs designed to be activated via Pathway I. IB. Nucleoside analogs designed to be activated via Pathway II. Phth=phthalimido.
In vitro growth inhibition assay of P. falciparum (KI). The determination of IC50 values against erythrocytic stages of P. falciparum was carried out in duplicate using the [^3H]-hypoxanthine incorporation assay.^58,59

CCN(CC)CCCC(C)Nc1ccnc2cc(Cl)ccc12 (stereo not shown) [chloroquine, reference compound]
IC50: 0.071 µM
